Measured values from EP4568957B1, “SUBSTITUTED PHENYL OXOOXAZOLYL PIPERIDINE DIONE COMPOUNDS” (Bristol-Myers Squibb Company, priority 2023, dated 2025).
Some of these results come from one statement about several compounds together.

Sequences of proteins named here, by UniProt entry; tags and fusion partners are left off. A change or cut given only in a name is not applied to a line headed by its entry.
UniProt Q96SW2: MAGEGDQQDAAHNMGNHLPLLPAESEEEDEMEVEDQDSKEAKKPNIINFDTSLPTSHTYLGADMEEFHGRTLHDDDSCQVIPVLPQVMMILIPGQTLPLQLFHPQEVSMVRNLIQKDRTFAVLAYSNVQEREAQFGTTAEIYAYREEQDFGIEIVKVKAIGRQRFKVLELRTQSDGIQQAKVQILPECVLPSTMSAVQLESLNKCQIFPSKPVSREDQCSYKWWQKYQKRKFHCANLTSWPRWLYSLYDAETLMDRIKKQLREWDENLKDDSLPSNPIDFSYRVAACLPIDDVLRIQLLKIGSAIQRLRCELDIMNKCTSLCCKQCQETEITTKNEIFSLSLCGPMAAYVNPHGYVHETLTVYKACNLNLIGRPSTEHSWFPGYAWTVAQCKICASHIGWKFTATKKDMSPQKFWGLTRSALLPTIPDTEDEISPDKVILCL
UniProt Q9UKS7: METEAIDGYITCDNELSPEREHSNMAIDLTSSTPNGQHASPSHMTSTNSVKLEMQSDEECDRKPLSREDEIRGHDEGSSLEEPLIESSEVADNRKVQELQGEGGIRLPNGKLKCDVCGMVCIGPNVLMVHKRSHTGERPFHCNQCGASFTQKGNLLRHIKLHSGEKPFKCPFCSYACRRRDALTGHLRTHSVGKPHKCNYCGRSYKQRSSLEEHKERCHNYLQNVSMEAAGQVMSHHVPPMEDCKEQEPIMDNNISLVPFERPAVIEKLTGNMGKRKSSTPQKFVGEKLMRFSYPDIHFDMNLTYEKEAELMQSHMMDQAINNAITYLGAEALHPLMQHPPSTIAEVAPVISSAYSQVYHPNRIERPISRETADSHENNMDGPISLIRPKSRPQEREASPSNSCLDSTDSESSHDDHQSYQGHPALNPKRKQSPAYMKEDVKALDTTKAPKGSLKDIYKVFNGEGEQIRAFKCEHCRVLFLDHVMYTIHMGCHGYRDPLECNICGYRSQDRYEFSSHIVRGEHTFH

Biological target: IKZF2 Helios (Homo sapiens, UniProt Q96SW2+Q9UKS7)
Assay: Jurkat Cellular Degradation Assay
Type: cell-based
Parameters: fluorescently labelled antibodies against Helios, Ikaros and Aiolos; endogenous in cells; host or cells: Jurkat cells
Conditions: Jurkat cells, 24 h; 100% = complete degradation
Procedure: Jurkat cells were plated at 80,000 cells/well in 40 µL RPMI + 10% FBS in a 384-well cell culture plate prior to using acoustic dispensing technology for adding a compound of interest. Cell cultures were incubated for 24 h at 37 °C and 5% CO2. In order to facilitate analysis, cell cultures were spun down at 200 rpm for 5 min and the supernatant was discarded. After shaking the plate to dislodge the cell pellet, cells were resuspended in 50 µL of Fixation Buffer (eBioscience FoxP3 buffer set 00-5523-00) for 60 min at room temperature. After centrifuging and discarding the supernatant, cells were permeabilized with 50 µL of Permeabilization buffer (eBioscience FoxP3 buffer set 00-5523-00) for 10 min at room temperature. Following permeabilization, cells were spun down and the supernatant was replaced with 20 µL fluorescently labelled antibodies against Helios, Ikaros and Aiolos or corresponding Isotype controls in 1× Permeabilization buffer (Ikaros-Alexa488 [Biolegend, Cat #368408, 1:50], Helios-PE [CST, Cat #29360, 1:50]. Aiolos-Alexa647 [Biolegend, Cat #371106 Biolegend, 1:25]) and staining reactions were incubated for 1 h at room temperature while protected from light. […] Stained cells were resuspended in 25 µL of flow cytometry staining buffer [PBS + 0.2% bovine serum albumin (BSA)] and analyzed using an Intellicyt Ique Plus flow cytometer. […]

## CO[C@H]1C[C@H](Oc2c(C)cc(-c3ccc(-c4cn(C5CCC(=O)NC5=O)c(=O)o4)c(F)c3)nc2N)C1 (relative stereo) [Example 2, trans 3-(5-(4-(6-amino-5-(3-methoxycyclobutoxy)-4-methylpyridin-2-yl)-2-fluorophenyl)-2-oxooxazol-3(2H)-yl)piperidine-2,6-dione]
  IKZF2 Helios max % deg. observed: at least 89%
